# Test results: PubChem BioAssay AID504467 (National Center for Advancing Translational Sciences (NCATS), 2011)
# The campaign covered roughly 330,000 compounds. About 7,700 (2.3%) were called active. The shares of active, inactive and inconclusive entries below differ from those in the screen. Calls follow the shape of the dose curve; as a rule, active = well fitted inhibition curve with a large enough effect; inconclusive = small, poorly fitted or top-dose-only effect, or effect the other way; inactive = flat fitted curve, though single readings scatter. A potency beside an inconclusive call is a rough fit, not a confirmed value.
# Assay: qHTS screen for small molecules that inhibit ELG1-dependent DNA repair in human embryonic kidney (HEK293T) cells expressing luciferase-tagged ELG1; also: nearly all actives have a fitted effect of over 55% in size
# Details: HEK293T ELG1-luciferase reporter, luminescence, 16 h, DNA damage induced by 5-fluorouridine; activity change, negative = inhibition: at 46.1 µM (top of the series)
# How it was run: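 Step one: seed 2,000 cells per well. Step two: pin-transfer compound or DMSO alongside 5-fluorouridine. Step three: incubate 16 hr, 37 °C, 5% CO2. Step four: add ONE-Glo, wait 30 min, read luminescence.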
# % is scaled to controls: 0 for no effect and ±100 for the full control effect; potency is read from the fitted curve at half-maximal effect.
Structure (SMILES),Potency,"activity change, negative = inhibition"
CCS(=O)(=O)Nc1cccc(C2=NN(C(C)=O)C(c3cccs3)C2)c1 (configuration not stated),"inconclusive: 20.6 µM [inhibitor, single point]",–
Cc1cccc(C2c3[nH]c4ccccc4c3CCN2Cc2cccn2-c2ncccn2)c1 (configuration not stated),"inconclusive: 5.17 µM [inhibitor, full curve]",–
N#Cc1c(NC(=O)Cn2cnc3ccccc3c2=O)oc(-c2ccccc2)c1-c1ccccc1,–,inactive: 9.02%
COCCN=c1scc(-c2ccc3c(c2)NC(=O)CO3)n1/N=C(\C)c1ccc(O)cc1,active: 18.3 µM,–
CC(=O)c1c(C)[nH]c(C(=O)OCC(=O)Nc2ccc3c(c2)OCCO3)c1C,active: 14.6 µM,–
COc1ccc(CCN(C)C(=O)C2CCN(C(=O)Nc3ccccc3)CC2)cc1OC,–,inactive: 18.5%
O=C(Nc1ccc(N2CCN(C(=O)c3ccco3)CC2)c(Cl)c1)c1cc2ccccc2o1,active: 5.17 µM,–
COc1ccc(NS(=O)(=O)c2ccc(NC(=O)Cc3cccs3)cc2)cc1,–,inactive: -12.5%
COCCN(Cc1ccccc1)C(=O)c1ccc2c(=O)n3c(nc2c1)CCC3,–,inactive: 3.56%
O=C(OCC(=O)N1CCCCCC1)c1cccnc1Cl,"inconclusive: 20.6 µM [activator, partial curve]",–
Cc1cccc(N(Cc2ccccc2)C(=O)c2cc(S(=O)(=O)N3CCOCC3)ccc2Cl)c1,"inconclusive: 5.8 µM [inhibitor, partial curve, poor fit]",–
COC(=O)c1sccc1NC(=O)Nc1ccc(F)cc1,–,inactive: -19.3%
O=C1c2cccnc2C(Nc2ccc(Br)cc2)N1Cc1cccs1 (configuration not stated),–,inactive: 8.77%
CC(=O)c1nn(-c2cccc(Br)c2)cc1C(=O)c1ccc(C)cc1,–,inactive: 12.5%
COc1ccc(/C=C/C(=O)C2(O)CCCCC2)cc1,"inconclusive: 25.9 µM [activator, single point]",–
COc1ccccc1C(=O)NNC(=O)c1ccccc1Br,"inconclusive: 6.31 µM [activator, partial curve, poor fit]",–
[N-]=[N+]=N[C@@H](CCN1CC[C@H](NC(=O)OCc2ccccc2)CCC1=O)c1ccccc1,–,inactive: -5.52%
CN(C(=O)c1ccc(COc2ccccc2Cl)o1)c1ccccc1,"inconclusive: 23.1 µM [activator, partial curve, poor fit]",–
Cc1ccc(-c2nnc(SC(C)C(=O)NCC3CCCO3)nc2-c2ccc(C)cc2)cc1 (configuration not stated),"inconclusive: 20.6 µM [inhibitor, single point]",–
Nc1ccc(OCCc2ccccc2)cc1,"inconclusive: 1.83 µM [activator, partial curve, poor fit]",–
COc1ccc(NC(=O)c2csc(Cc3ccc(Cl)cc3)n2)cc1,"inconclusive: 14.6 µM [inhibitor, partial curve]",–
Cn1cccc1CNC(=O)Nc1ccc(Cl)c(Cl)c1,"inconclusive: 10.3 µM [activator, partial curve, poor fit]",–
CCC(=O)Nc1nonc1-c1nc2ccccc2n1Cc1cccc2ccccc12,–,inactive: 1.52%
COc1cc2ccccc2cc1C(=O)NC(=S)Nc1cccc(C(=O)O)c1,"inconclusive: 16.4 µM [activator, partial curve]",–

# At a glance, 17 of the compounds above.
Structure (SMILES),Potency,"activity change, negative = inhibition"
O=C(Nc1ccc(N2CCN(C(=O)c3ccco3)CC2)c(Cl)c1)c1cc2ccccc2o1,active: 5.17 µM,–
COc1ccc(NS(=O)(=O)c2ccc(NC(=O)Cc3cccs3)cc2)cc1,–,inactive: -12.5%
COCCN(Cc1ccccc1)C(=O)c1ccc2c(=O)n3c(nc2c1)CCC3,–,inactive: 3.56%
O=C(OCC(=O)N1CCCCCC1)c1cccnc1Cl,"inconclusive: 20.6 µM [activator, partial curve]",–
Cc1cccc(N(Cc2ccccc2)C(=O)c2cc(S(=O)(=O)N3CCOCC3)ccc2Cl)c1,"inconclusive: 5.8 µM [inhibitor, partial curve, poor fit]",–
COC(=O)c1sccc1NC(=O)Nc1ccc(F)cc1,–,inactive: -19.3%
O=C1c2cccnc2C(Nc2ccc(Br)cc2)N1Cc1cccs1 (configuration not stated),–,inactive: 8.77%
CC(=O)c1nn(-c2cccc(Br)c2)cc1C(=O)c1ccc(C)cc1,–,inactive: 12.5%
COc1ccc(/C=C/C(=O)C2(O)CCCCC2)cc1,"inconclusive: 25.9 µM [activator, single point]",–
COc1ccccc1C(=O)NNC(=O)c1ccccc1Br,"inconclusive: 6.31 µM [activator, partial curve, poor fit]",–
[N-]=[N+]=N[C@@H](CCN1CC[C@H](NC(=O)OCc2ccccc2)CCC1=O)c1ccccc1,–,inactive: -5.52%
CN(C(=O)c1ccc(COc2ccccc2Cl)o1)c1ccccc1,"inconclusive: 23.1 µM [activator, partial curve, poor fit]",–
Cc1ccc(-c2nnc(SC(C)C(=O)NCC3CCCO3)nc2-c2ccc(C)cc2)cc1 (configuration not stated),"inconclusive: 20.6 µM [inhibitor, single point]",–
Nc1ccc(OCCc2ccccc2)cc1,"inconclusive: 1.83 µM [activator, partial curve, poor fit]",–
COc1ccc(NC(=O)c2csc(Cc3ccc(Cl)cc3)n2)cc1,"inconclusive: 14.6 µM [inhibitor, partial curve]",–
Cn1cccc1CNC(=O)Nc1ccc(Cl)c(Cl)c1,"inconclusive: 10.3 µM [activator, partial curve, poor fit]",–
CCC(=O)Nc1nonc1-c1nc2ccccc2n1Cc1cccc2ccccc12,–,inactive: 1.52%

# Additional results

Structure (SMILES),Potency,"activity change, negative = inhibition"
O=C(Nc1ccnc(=O)[nH]1)c1sc2ccccc2c1Cl,"inconclusive: 20.6 µM [activator, single point]",–
CSc1ccccc1C(=O)Nc1cccc(C)c1,"inconclusive: 29.1 µM [activator, single point]",–
C=CCNC(=O)c1cc(C(=O)C(C)c2ncc(C(F)(F)F)cc2Cl)c[nH]1 (configuration not stated),–,inactive: 18.3%
O=C(CSCC(=O)N1CCCCC1)Nc1nc(-c2cccs2)cs1,"inconclusive: 18.4 µM [activator, single point]",–
CCN(C(=O)COC(=O)c1cc(-c2ccc3cc(OC)ccc3c2)nc2ccccc12)C1CCS(=O)(=O)C1 (configuration not stated),"inconclusive: 1.16 µM [activator, partial curve]",–
Cc1ccc(NC(=O)CSc2nnnn2C2CC2)cc1S(=O)(=O)N1CCOCC1,–,inactive: -6.58%
C#CCn1c(O)c(N=NC(=O)CNC(=O)c2cccnc2)c2ccccc21,"inconclusive: 16.4 µM [activator, partial curve, poor fit]",–
CC(C(=O)N1CCc2ccccc21)N(C)CC(=O)Nc1ccccc1Cl (configuration not stated),–,inactive: -12.2%
O=C(Cn1c(=O)oc2cc(S(=O)(=O)N3CCCC3)ccc21)N1CCN(c2ccccc2)CC1,–,inactive: 0.378%
COc1ccc(N2C(S)=C(C#N)C(=O)NC2c2ccco2)cc1 (configuration not stated),–,inactive: -0.63%
CCOc1cc(-c2noc(CCCC(N)=O)n2)cc(Br)c1OC,"inconclusive: 29.1 µM [inhibitor, single point]",–
COC(=O)c1ccc(S(=O)(=O)NCCc2ccccc2OC)n1C,"inconclusive: 23.1 µM [inhibitor, single point]",–
CCN1CCN(c2cc(C)c3cc(NC(=O)c4ccc(C)c(C)c4)ccc3n2)CC1,–,inactive: 6.23%
CCOC(=O)NNc1ccc2nonc2c1[N+](=O)[O-],"inconclusive: 20.6 µM [inhibitor, single point]",–
Cc1[nH]c2ccccc2c1/C=N/Nc1cccc(C(=O)O)c1,"inconclusive: 7.3 µM [activator, partial curve]",–
COc1ccc(NC(=O)Cc2nnc(SCC(=O)c3ccc(F)cc3)n2C)cc1,–,inactive: -10.5%
Cc1nn(C)cc1/C=N/NC(=S)Nc1ccccc1,"inconclusive: 6.51 µM [activator, partial curve]",–
C=CC(C)(C)c1[nH]cnc1/C=C1\NC(=O)C(C(C)C)NC1=O (configuration not stated),–,inactive: -19.8%
C=CCc1cccc(/C=N/NC(=O)CCC(=O)Nc2ccc(F)cc2)c1O,"inconclusive: 2.59 µM [inhibitor, partial curve, poor fit]",–
CN(CCC1CCCCO1)C(=O)CCc1nnc(C2CCCCC2)o1 (configuration not stated),"inconclusive: 18.3 µM [activator, single point]",–
O=C1C(Cl)=C(NCC2CCCO2)C(=O)N1c1ccccc1 (configuration not stated),"inconclusive: 32.6 µM [activator, partial curve, poor fit]",–
COc1ccc(C=Nc2ccc3[nH]ncc3c2)c(O)c1,"inconclusive: 18.3 µM [inhibitor, single point]",–
Cc1nn(-c2ccccn2)c2c1-c1nc(N)ncc1CC2,"inconclusive: 29.1 µM [inhibitor, single point]",–
COc1ccc(C(=O)NCC(=O)OCCCOC(=O)CNC(=O)c2ccc(OC)c(OC)c2)cc1OC,–,inactive: -2.54%

Structure (SMILES),Potency,"activity change, negative = inhibition"
COc1ccc(-n2c(C)cc(-c3csc(NC(=O)c4ccc(S(=O)(=O)N(C)C)cc4)n3)c2C)cc1,"inconclusive: 11.6 µM [inhibitor, partial curve]",–
O=C(O)c1ccc(-n2nc(C(F)(F)F)cc2-c2cccs2)cc1,–,inactive: -1.73%
CCOC(=O)/C=C/C(=O)Nc1ccc(S(=O)(=O)N2CCCCCC2)cc1,–,inactive: 14.4%
Cc1nc2ccccn2c1C(=O)NCc1ccc2c(c1)OCO2,active: 16.4 µM,–
O=C(Nc1nnc(C2CC2)s1)C1Cc2ccccc2CN1S(=O)(=O)c1ccccc1F (configuration not stated),"inconclusive: 3.16 µM [activator, single point]",–
CC1(C)Cc2cccc(OCC(=O)Nc3cccnc3Cl)c2O1,"inconclusive: 3.66 µM [inhibitor, partial curve, poor fit]",–
COc1ccccc1CNC(=O)c1ccc(CS(=O)(=O)c2ccccc2C)o1,"inconclusive: 18.3 µM [inhibitor, partial curve, poor fit]",–
O=C(NCC1CCCO1)C(=O)c1c[nH]c2ccccc12 (configuration not stated),"inconclusive: 16.4 µM [activator, partial curve]",–
CCC(C)[C@H]1CNCCN1CCc1cc(C(F)(F)F)cc(C(F)(F)F)c1 (some centres not stated),active: 3.55 µM,–
CN(CCOc1ccc(Br)cc1)CC(O)COc1ccc(C#N)cc1 (configuration not stated),"inconclusive: 10.3 µM [inhibitor, partial curve]",–
C=CCNc1nc(S(=O)Cc2ccc(C)cc2)nc2c1CCCC2 (configuration not stated),–,inactive: -27.1%
CCCOC(=O)c1ccc(Oc2c(-c3ccc(O)cc3O)n[nH]c2C)cc1,"inconclusive: 18.4 µM [inhibitor, single point]",–
O=C1OC(c2ccc(Br)cc2)=N/C1=C\N1CCCCC1,"inconclusive: 10 µM [activator, partial curve]",–
CCc1cc(/C(Cc2csc(C)n2)=N/O)c(O)cc1O,"inconclusive: 4.11 µM [inhibitor, full curve]",–
COc1ccc(CN2CCNC(=O)C2CC(=O)NC2CCCCCCC2)cc1C (configuration not stated),–,inactive: 15.1%
CCc1cc(=O)oc2cc(OCc3ccc(C(=O)O)o3)ccc12,"inconclusive: 18.3 µM [activator, partial curve]",–
O=C(NCc1csc(-c2cccs2)n1)C1CCCCC1,"inconclusive: 14.6 µM [activator, partial curve]",–
CC1CC(C)CN(CC(=O)Nc2cc(S(=O)(=O)N3CCOCC3)ccc2N2CCCC2)C1 (configuration not stated),–,inactive: 8.29%
COc1ccc(-c2c(-c3ccsc3)oc(=O)c3cc(OC)c(OC)cc23)cn1,"inconclusive: 29.1 µM [inhibitor, single point]",–
CCOC(=O)c1cnc(-n2nc(C)cc2C)nc1NNc1nc(-c2ccccc2)cc(-c2ccccc2)n1,active: 5.17 µM,–
COCCCn1c(SCC(=O)N2CCOCC2)nc2ccccc2c1=O,–,inactive: 18.7%
CCN(CC)C(=O)C1CCN(S(=O)(=O)c2ccc3c(c2)CCCN3C(=O)C2CCC2)CC1,active: 23.1 µM,–
Cc1ccccc1-n1c(SCC(=O)N2CCN(c3ccccc3)CC2)nnc1-c1ccncc1,"inconclusive: 18.4 µM [inhibitor, single point]",–
Cc1c(C(=O)N2CCC3(CC2)CC(=O)c2ccccc2O3)cccc1[N+](=O)[O-],"inconclusive: 11.6 µM [inhibitor, partial curve]",–
